Measured values taken from paper PMC10967197.
No constants are given. Whether binding was seen depends on the method and setting. In cells and extracts the contact can be indirect. Some results given as binding are weak or reduced against the parent protein; the word gives no strength.

The chains behind the UniProt entries cited, without tags or fusion partners.
UniProt Q9UKV8: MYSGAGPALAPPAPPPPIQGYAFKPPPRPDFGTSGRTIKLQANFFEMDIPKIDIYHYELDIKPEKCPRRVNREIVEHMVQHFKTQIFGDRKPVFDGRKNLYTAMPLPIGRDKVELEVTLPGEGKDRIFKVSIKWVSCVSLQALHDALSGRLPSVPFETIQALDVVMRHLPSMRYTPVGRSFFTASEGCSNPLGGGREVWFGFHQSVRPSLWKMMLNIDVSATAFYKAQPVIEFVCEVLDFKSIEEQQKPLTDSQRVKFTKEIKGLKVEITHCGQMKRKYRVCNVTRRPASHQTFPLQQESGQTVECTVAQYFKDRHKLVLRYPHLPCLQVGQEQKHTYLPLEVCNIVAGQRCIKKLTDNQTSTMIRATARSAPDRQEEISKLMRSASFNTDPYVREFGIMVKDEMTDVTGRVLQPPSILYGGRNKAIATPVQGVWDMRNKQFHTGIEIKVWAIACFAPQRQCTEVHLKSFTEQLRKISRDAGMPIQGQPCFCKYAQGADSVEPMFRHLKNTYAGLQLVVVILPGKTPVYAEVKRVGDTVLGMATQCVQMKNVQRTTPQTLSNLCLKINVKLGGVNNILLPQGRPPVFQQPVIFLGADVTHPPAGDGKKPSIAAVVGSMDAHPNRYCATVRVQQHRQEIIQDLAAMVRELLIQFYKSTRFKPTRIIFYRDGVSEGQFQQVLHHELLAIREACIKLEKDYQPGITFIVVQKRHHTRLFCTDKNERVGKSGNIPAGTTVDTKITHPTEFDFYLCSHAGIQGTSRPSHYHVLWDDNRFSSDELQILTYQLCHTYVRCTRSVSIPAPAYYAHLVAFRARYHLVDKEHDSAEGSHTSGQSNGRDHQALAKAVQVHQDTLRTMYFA
UniProt P11940: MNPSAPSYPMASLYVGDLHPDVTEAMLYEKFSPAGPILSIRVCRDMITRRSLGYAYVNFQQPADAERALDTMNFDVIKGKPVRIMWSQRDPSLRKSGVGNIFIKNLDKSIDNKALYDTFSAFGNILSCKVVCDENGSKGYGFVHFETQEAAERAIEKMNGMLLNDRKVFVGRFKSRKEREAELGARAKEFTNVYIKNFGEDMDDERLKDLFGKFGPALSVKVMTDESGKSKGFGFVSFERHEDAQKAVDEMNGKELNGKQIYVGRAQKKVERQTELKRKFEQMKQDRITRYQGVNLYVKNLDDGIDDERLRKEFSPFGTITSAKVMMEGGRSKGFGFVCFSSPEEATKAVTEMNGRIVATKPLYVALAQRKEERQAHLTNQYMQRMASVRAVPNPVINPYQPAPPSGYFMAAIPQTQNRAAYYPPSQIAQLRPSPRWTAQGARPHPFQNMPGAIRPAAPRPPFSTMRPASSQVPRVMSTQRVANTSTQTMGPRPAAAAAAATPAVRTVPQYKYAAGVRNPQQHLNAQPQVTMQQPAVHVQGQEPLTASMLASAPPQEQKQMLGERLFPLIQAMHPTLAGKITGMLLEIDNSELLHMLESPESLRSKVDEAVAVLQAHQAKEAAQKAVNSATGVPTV

Target: Argonaute risk component 2 (human (endogenous in HUVECs)) (UniProt Q9UKV8)
Experiment: co-IP; primary and IgG antibodies cross-linked to protein A/G magnetic beads; lysate of 1 x 10^7 HUVECs incubated with the beads at 25 °C for 1 h; bound proteins identified by western blot

Substance: Poly(A) binding protein cytoplasmic 1 (from UniProt P11940 1-636)
- binding: binds
